No constants are given. Whether binding was seen depends on the method and setting. In cells and extracts the contact can be indirect. Some binding calls cover weakened binding; strength is not graded here. Tags and fused reporters may be left off the sequences shown.

Protein sequences, listed by entry. Tags and fused reporters are not part of them.
UniProt Q921F2: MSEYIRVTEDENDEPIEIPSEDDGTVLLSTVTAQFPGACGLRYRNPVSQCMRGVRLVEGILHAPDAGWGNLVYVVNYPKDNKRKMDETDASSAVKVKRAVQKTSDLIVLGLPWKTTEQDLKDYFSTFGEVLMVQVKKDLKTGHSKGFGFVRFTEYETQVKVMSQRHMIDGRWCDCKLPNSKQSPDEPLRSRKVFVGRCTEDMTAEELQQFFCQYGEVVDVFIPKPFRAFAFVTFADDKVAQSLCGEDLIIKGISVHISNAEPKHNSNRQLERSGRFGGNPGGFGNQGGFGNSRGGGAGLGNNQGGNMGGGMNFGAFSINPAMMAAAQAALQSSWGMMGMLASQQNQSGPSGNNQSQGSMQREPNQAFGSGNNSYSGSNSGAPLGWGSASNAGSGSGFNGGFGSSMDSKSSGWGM

One assay addresses Myc-USP7 (human), Q93009. Description: co-IP; NIH3T3 cells expressing FLAG-CRY2 and/or Myc-USP7, 10 uM MG132 for 6 hours, IP Buffer (137 mM NaCl, 1% Triton X-100, pH 7.8), anti-FLAG or anti-Myc antibody, Protein G-Sepharose, 4°C; normal mouse IgG as negative control. The conditions noted are these: remark: other sources report otherwise.
A further assay has as its target FLAG-TDP-43 (mouse) (UniProt Q921F2). The assay can be described thus: co-IP; HEK293 cells expressing FLAG-CRY2, or Myc-CRY2 and/or FLAG-TDP-43, lysed with IP Buffer, immunoprecipitation with anti-FLAG antibody, western blotting. (In general: In western blotting, separated proteins are transferred to a membrane and probed.)

B1: FLAG-CRY2 (in NIH3T3 cells), Q9R194 1-592 (protein)
chain: MAAAAVVAATVPAQSMGADGASSVHWFRKGLRLHDNPALLAAVRGARCVRCVYILDPWFAASSSVGINRWRFLLQSLEDLDTSLRKLNSRLFVVRGQPADVFPRLFKEWGVTRLTFEYDSEPFGKERDAAIMKMAKEAGVEVVTENSHTLYDLDRIIELNGQKPPLTYKRFQALISRMELPKKPAVAVSSQQMESCRAEIQENHDDTYGVPSLEELGFPTEGLGPAVWQGGETEALARLDKHLERKAWVANYERPRMNANSLLASPTGLSPYLRFGCLSCRLFYYRLWDLYKKVKRNSTPPLSLFGQLLWREFFYTAATNNPRFDRMEGNPICIQIPWDRNPEALAKWAEGKTGFPWIDAIMTQLRQEGWIHHLARHAVACFLTRGDLWVSWESGVRVFDELLLDADFSVNAGSWMWLSCSAFFQQFFHCYCPVGFGRRTDPSGDYIRRYLPKLKGFPSRYIYEPWNAPESVQKAAKCIIGVDYPRPIVNHAETSRLNIERMKQIYQQLSRYRGLCLLASVPSCVEDLSHPVAEPGSSQAGSISNTGPRALSSGPASPKRKLEAAEEPPGEELTKRARVTEMPTQEPASKDS
On to B1, for which, in the assay with Myc-USP7 (human), Q93009, the binding entry is “binds”.

B2: Myc-CRY2 (in HEK293 cells) (protein, UniProt Q9R194 1-592)
chain: MAAAAVVAATVPAQSMGADGASSVHWFRKGLRLHDNPALLAAVRGARCVRCVYILDPWFAASSSVGINRWRFLLQSLEDLDTSLRKLNSRLFVVRGQPADVFPRLFKEWGVTRLTFEYDSEPFGKERDAAIMKMAKEAGVEVVTENSHTLYDLDRIIELNGQKPPLTYKRFQALISRMELPKKPAVAVSSQQMESCRAEIQENHDDTYGVPSLEELGFPTEGLGPAVWQGGETEALARLDKHLERKAWVANYERPRMNANSLLASPTGLSPYLRFGCLSCRLFYYRLWDLYKKVKRNSTPPLSLFGQLLWREFFYTAATNNPRFDRMEGNPICIQIPWDRNPEALAKWAEGKTGFPWIDAIMTQLRQEGWIHHLARHAVACFLTRGDLWVSWESGVRVFDELLLDADFSVNAGSWMWLSCSAFFQQFFHCYCPVGFGRRTDPSGDYIRRYLPKLKGFPSRYIYEPWNAPESVQKAAKCIIGVDYPRPIVNHAETSRLNIERMKQIYQQLSRYRGLCLLASVPSCVEDLSHPVAEPGSSQAGSISNTGPRALSSGPASPKRKLEAAEEPPGEELTKRARVTEMPTQEPASKDS
B2: the binding result with FLAG-TDP-43 (mouse) was “binds”.

The record behind these values is article PMC4849774.
